Screen size: about 53,000 sequences; about 3,700 (7%) were called active.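 The calls were made as follows: active = gene knockdowns whose robust z-score for IL-1 alpha signal is at least 2 or at most -2, so actives lie on both sides; inactive = the rest.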 This is one part of the list.

This assay can be described thus: Components of the Cytosolic LPS Sensing Pathway: Gene Identification via Genome-wide siRNA Screen.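 Also: robust z of the log signal after scaling to non-targeting control siRNA wells of the plate.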 The settings on record: RAW264.7 macrophages, IL-1a HTRF, actives lie on both sides, screened at 100 nM (by protocol), cells primed 5 h with Pam3CSK4 first. The essentials:
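Using IL-1a HTRF as read-out, the screen measured release from RAW264.7 cells after 48h siRNA knockdown (100 nM), 5 h Pam3CSK4 priming and 24 h cytosolic LipidA. Values were expressed relative to negative-control wells as robust z-scores.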
In general terms: In TR-FRET formats the signal depends on donor and acceptor labels being close together.
On to GGGAUGGUGAUGGUGAAAGTT against Qprt, for which the z-score is inactive: -0.644.

With GGUUAACGAUGAAGAUGUATT against Rab23, the z-score was inactive: -1.05.

In the case of GACUUCGGACAAAUGGUGCTT against Lce1f, the z-score was active: 2.27.

In the case of CCCAUGCUUAUUACCGAGATT against Rab37, the z-score was inactive: 0.0517.

Consider CCUCUCCAGUGUCGACAUUTT against Olfr51, for which the z-score was inactive: 0.347.

Regarding GCCAACCUUAACUAUUAAGTT against F2rl2, the z-score was inactive: 1.12.

For GGUUCAACUUCACACUGAGTT against Mettl22, the z-score was inactive: 1.08.

As for CCUAAAUAUCCAAGACAUUTT against Mcm3, the z-score was inactive: 0.982.

For GGCCACCUAUGAUGGAAAUTT against Kdelr2, the z-score is inactive: -0.379.

Regarding GGCAAAUUGAGUUUUAGCATT against Wipf1, the z-score is inactive: -0.853.

On to GGUCACCGAUGACUACAUCTT against Ccr7, for which the z-score was inactive: 0.33.

GGACCUCACAAUGAGUAUGTT against Thtpa: the z-score was inactive: 1.23.

Consider GCAAUUCUGUGUUCAUCCGTT against Phex, for which the z-score is inactive: 0.636.

As to GGUCUUCAUAUUUCUUGCUTT against Olfr10, the z-score was inactive: -1.63.

Turning to GGCAAUAUGUCGUAUGUAATT against Sfmbt2, the z-score is active: -2.13.

In the case of GCUCUAUUCCGGUGGAUGUTT against Tbc1d10b, the z-score is inactive: 0.827.

Consider GGCGCAUUACCAGAGCUUCTT against Tnpo2, for which the z-score is inactive: -0.425.

Regarding GGUCUGAACAGAAGAUUUGTT against Pdlim1, the z-score was inactive: 0.603.

As for GGCAUUUCUUUCACUAGCUTT against Olfr618, the z-score was inactive: 0.833.

Regarding GCCGCUGGUUCAUUAUCACTT against Tbx2, the z-score was inactive: 0.142.

For GGAUUUAACAACGAGAGAATT against Rasgrf2, the z-score is inactive: -0.463.

As to GGUCAACGUGAAGACUUCCTT against Ly6a, the z-score is inactive: 0.89.

As to GCCUUACUCUCUCAGUCCUTT against Gm5115, the z-score was inactive: -0.269.

Turning to GGAGGAAGUCGUCUUUGGATT against Olfr1377, the z-score was inactive: 1.3.

With GGACUGUCCAAAAGAAAGGTT against Tnfrsf18, the z-score is inactive: -0.267.

Turning to GGAAUCUGCUAUGCUUAAATT against Rdh16f2, the z-score was inactive: -1.84.

In the case of CGCAGUUCAUCGCAUGAUUTT against Arhgef12, the z-score is inactive: 0.611.

As for GGAAAACCAUGACAUCAUATT against Man2a2, the z-score was inactive: -0.818.

With GCUUUCAGUGAGGUACAAGTT against Gm4425, the z-score was inactive: -1.25.

Regarding GCGAGCUCGAUUGAAAACUTT against Dlg3, the z-score is inactive: 1.3.

Consider CCAGAUGCUGACUUGAACATT against Dpep1, for which the z-score is inactive: 0.299.

As to GGAUUUGUGCAGGAAUGCCTT against Slc6a18, the z-score was inactive: 0.171.

For the sequence GGCAAGUCUGUGUGCAGAUTT against Olfr267, the z-score was inactive: 0.579.

In the case of GGAAUUCCCAAGAGAAGGATT against Gk, the z-score is active: -5.27.

On to CCAGACCUACAAUGAGAUGTT against Gga1, for which the z-score is inactive: -0.699.

For GGAAAAUCUCUUGGGACGATT against Myo6, the z-score is inactive: 1.46.

As to GCAGCCGCUUUAAUUAAAATT against Apaf1, the z-score was inactive: 1.49.

Consider GGCCACUUGUCUCAUUGUGTT against Xlr4c, for which the z-score was inactive: -1.93.

In the case of “GGCAAGGACUCGAAGACUATT against 9630028B13Rik”, the z-score was inactive: 1.2.

GUUCAUUUGUCAUCACUGUTT against Prss2: the z-score was inactive: -1.28.

As for GCAAUAGCAUACCUACCAUTT against Desi2, the z-score is inactive: -0.228.

For the sequence GGGCAGUUCUCUUUGCCAATT against Gns, the z-score is inactive: -1.15.

For CCAUUAAUAAAGCGUGGGUTT against Cacybp, the z-score is inactive: 0.562.

Turning to CCUAAACCCAUUCCAGUCUTT against Dpm3, the z-score was inactive: 0.104.

Take GGUGACUAUUAGAAGUAAATT against Gtf3c4: the z-score is inactive: 1.18.

On to CCUGACAUUCUUUAAUCCATT against Synb, for which the z-score was inactive: 0.6.

Consider “GAUAUUGCUCUCCAAUCUATT against 2310034C09Rik”, for which the z-score is inactive: -1.4.

In the case of GAUAUAAGGACUCUUUGAATT against Glt28d2, the z-score was inactive: -0.287.

As to CCCACCAGUAAGGAGUUCATT against Dido1, the z-score is inactive: -0.177.

Consider GCAUGCUGACAUUAAAGUGTT against Clca4a, for which the z-score is inactive: 0.607.

Regarding GGUAUGAGAUACCGGACACTT against Asic1, the z-score was inactive: 1.77.

Turning to GGCUAUCCUGGAAAAAGAGTT against Slc25a36, the z-score was inactive: -1.13.

With GGACAUUGUCACAUCAUUCTT against Slc2a6, the z-score is inactive: 1.64.

As for GGCAAUGUUUACAAGUUCCTT against Ralgps1, the z-score is inactive: 0.491.

With GGUGGGCAUCUGACAACAUTT against Set, the z-score is inactive: 0.886.

Take GAGUGGAUGGCUCAAAGGATT against Zfp691: the z-score was inactive: 1.33.

For GGCUUUAGUUCUUUUGUAATT against Mmd, the z-score was inactive: -0.936.

As for GGAUAAAGCCACAUUUGGUTT against Apoh, the z-score was inactive: -0.483.

For GCUACUUUAGUGGUUUCACTT against Ets1, the z-score is inactive: 1.63.

With GCAAAAGGUUAAACUGAUATT against Fbxl14, the z-score is inactive: -0.393.

On to GCUAUCCUCAAAAUUCCUUTT against Olfr412, for which the z-score is inactive: -1.42.

For the sequence CGUAAGUUAUGUGUCUAAGTT against Fam207a, the z-score was inactive: 0.588.

On to GGAGGAUAGAUUUAUGUAUTT against Tmem241, for which the z-score is inactive: -0.847.

For CGAAGGUACUAUGUAUUUUTT against Tbce, the z-score is inactive: -0.12.

For the sequence GGUGCACACCAAUGUUCUGTT against Efemp2, the z-score is active: 2.03.

Consider CCACUCCAACUAGUGUUAATT against Pcdha10, for which the z-score is inactive: 1.65.

Turning to CCACACUAACUUGUAAUUUTT against Rasgrp1, the z-score was inactive: 0.778.

For the sequence GGGCCUUCUUCCUAAAUUUTT against Mat2a, the z-score was inactive: 0.708.

Take GCAAAGGGUUCCUGUACUUTT against Dnajc27: the z-score was inactive: 0.668.

On to GGACCAUUCUGGCUACUCATT against Ankrd34b, for which the z-score is active: -2.17.

On to GCAUCACAGAAACUGAGCATT against Pou6f2, for which the z-score was inactive: -0.542.

Regarding GGAGAUUCAGAAUUACUGATT against Krit1, the z-score was inactive: -0.818.

GGCAGUAAUCAACAAAUAGTT against Lrrtm4: the z-score was inactive: 0.000329.

Consider CGAAAACAAUUACGUCUAUTT against Rfwd3, for which the z-score is inactive: 1.15.

On to GUAAGGUCACCGGGUUGCATT against Lor, for which the z-score is inactive: 0.547.

On to GGUGCUUCACAGAAUGUGUTT against Olfr784, for which the z-score is inactive: -1.8.

GGCGAUGCUUCUUCAGUACTT against Wdr54: the z-score is inactive: 1.91.

For the sequence GGAUCUGUGCUCUGAGAAGTT against Acot11, the z-score is inactive: 0.937.

Consider GGAAAAAAGAGAGGUCAGATT against Meox1, for which the z-score is inactive: -1.02.

As to CCACUGAUCCUUUGACAGCTT against Zfy2, the z-score was inactive: 0.313.

For GCUUUAGUCAUUUGAACAUTT against Rap2c, the z-score is inactive: 1.59.

As to GGAUGAAAAGCUUAUUCGUTT against Ddx5, the z-score is inactive: -1.3.

GGAAGAUUUCGAUAAGCUCTT against Cacna1h: the z-score was inactive: 1.46.

For GAAUUCCAGCUUUUCCCUUTT against Klra22, the z-score is inactive: 1.5.

For the sequence GCUCUACCGUUAAGUUAUUTT against Eif4e2, the z-score is inactive: 0.499.

Regarding GGAGGACGUAUCAUUACAUTT against Twf1, the z-score was inactive: 1.95.

As to CCACUUGAGUAUAAGCAAUTT against Zfp955a, the z-score is inactive: 1.16.

As to “GGAAGCAUGUGAGAGAAAATT against C130026I21Rik”, the z-score was inactive: -1.03.

As to CCAUUUACCUCAUAGGACCTT against Crb3, the z-score was inactive: -0.239.

In the case of “GGCAACAGAGCUGACCCUATT against F630111L10Rik”, the z-score was inactive: 0.69.

For the sequence GCAGCUAGGUAAUAGGAAUTT against Nsg2, the z-score was inactive: 1.51.

Regarding CGCAGGUAUACCUUAAAGCTT against Paxbp1, the z-score was inactive: 0.154.

Regarding CCCAUGGCUACUUUGAAUCTT against Chmp2b, the z-score is inactive: -0.328.

For GGAACUGUGGAAGGAAUUCTT against Tbx6, the z-score was inactive: 0.116.

In the case of “GGUCGAUGCUUCGAAACCATT against 6820408C15Rik”, the z-score is inactive: -0.165.

For GCAAUUCUGCAAGUGAUUATT against Spata5l1, the z-score was inactive: -0.776.

As to GCCGGUCUAACUUUCCAAUTT against Ssbp3, the z-score was inactive: 0.946.

Consider GAUCUAUCACCGGUACUGCTT against Gys1, for which the z-score was inactive: 0.154.

GCCGCACAUGCCUACAGAATT against Pagr1a: the z-score was inactive: 0.795.

Consider “CGCCUACAGCUCUAUCUUATT against 2700062C07Rik”, for which the z-score is inactive: 1.05.

For the sequence GGUAUUAGUCCACUUAGGATT against Mplkip, the z-score is inactive: -0.0279.

Take CCCUAAGUAAUAGAAGUGGTT against Coa4: the z-score was inactive: -1.76.

Regarding CUUAGCUACUUCAAGGUCATT against Spink8, the z-score was inactive: 0.628.

On to CGAUCCGAAUGGGUCGACUTT against Bola1, for which the z-score is inactive: 0.896.

In the case of CCACAUCUUUGACGAGUACTT against Rgs16, the z-score is inactive: -0.145.

For GCAUAUAAUGUCUAACUCGTT against Eml4, the z-score was inactive: -0.0328.

Take GGAACUAUUGAGUUGUUGUTT against Pcdha5: the z-score was inactive: 0.15.

Source of the values: PubChem BioAssay AID1508600 (Functional Genomics Laboratory (NCATS/FGL), 2020).
